Data published in paper PMC4352251, “The VieB auxiliary protein negatively regulates the VieSA signal transduction system in Vibrio cholerae” (BMC Microbiology, 2015).
No constants are given. Whether binding was seen depends on the method and setting. Tags and fused reporters may be left off the sequences shown.

B1: VieB (wild type, His6 tag removed) (protein, UniProt O68319 1-553)
chain: MAVPTFAELKVLIIDDAPIVIASLRSMLLKLGFTDPNIVWSKSPRAAVFMAGRQRFDIFICDYNFGKGLNGKQVFEELKHYKLIKQDAVFVLVTGENSAYVVHSILELKPDEYILKPFNIMTLQERLTNAISRKHALKALYQAERDGDAELGLSLCDELEPFYNDYYFVIQKFRGEFLTQLRRFDHAREVYLETLEHKDFDWAKIGLANALKQTGRQVEATQVIQELLASAPNNVRARVEAASISLCNNSIPEAIHHLQVANQIVPGHSEREWVLANLCLSVGDGASALERYRLYVEINKETYRNNHQMHLNFIRTLLYAARQAESEQRDLWVQEAKSILKGLYDKGQHEDLLAQLELVAAHLAMEEGEFGVSVEILNKIYRAKPFELFEDRYHFTWLLNVMGFDSEFAKCISWCNGTLLNQETDIVLESKVALAKALKEANQEKLQWLEQRYHALCNKQQTIDSLLAIYIEILEKCPTLRTVCMKVVTIFSRYWPTALTESEAERLLKSCHRTIRQLMNEEELQQAQYAELYRKALTFRSRYRLQRTESVEA
B2: VieA-His6 (response regulator VieA) (natural protein)
chain: MKIMIVEDDRIQATSLKLKLRQLGLDDVILAENGFAALELCNKVGIDLMFCDIRMPQMDGISLLSQLSLQAPKLGVVILSAVEDTILELTHNMCSLAGFAYVDRLPKPYEVEDLQRVVEGFQKQTEPETSHKPAITLTCDEIEQAFLHDHIFNYYQPQFDFRSGAMVGVEALVRYEHPTHGMLSPAVFLPLIEQCGLHEKLFLTVLEKSVSALASIGADLQLSVNISQRNLQHSICDPILAICERYGFPASKLTLEMTEHEVYNGTPTSLANLARLRMYGVGLSIDDFGTGYASLGQLAQLPFTELKIDRSFVHDLATNYKHQQLTNMCLLLAQSLGLHCVVEGVENEETWQYLRQLGVDTCQGYYAAKPMPIAQLSELYTKNRRQCLGCQSMDDGWQILLVDNHMLSATALQKVLNKEENVSKVFVAQDIEQTLHKLRDLPINLLVVESRFLSTISPAAFHELLEPYYRGALLVLHDGLTAEAQEDEPKAIVVKANTLMETSSRILLQAQQSNVRPQAQQEELAQLSERELTVAKMLVEGLTNKEIALQLDINQKTVSTYKTRIMTKLGIKSAMELVRFVTLK
notes: not shown: His6, C-terminal, kept

What was measured:
[1] = target: T1, VieB (wild type, His6 tag removed) (UniProt O68319); experiment: SEC-MALS; Superose12 10/300 GL in Gel Filtration Buffer (25 mM Tris pH 7.5, 100 mM KCl, 1 mM DTT, 5% glycerol); column at 4°C, light scattering at 25°C; self-association of each protein; both purified
T1 sequence: B1 chain

[2] = target: T1, VieB (wild type, His6 tag removed); experiment: composition-gradient MALS (CG-MALS); both purified

| Binder | binding [1] | binding [2] |
| --- | --- | --- |
| B1 | no binding |  |
| B2 |  | no binding |
